We go through one molecule from PMC8324300.

Results are given in words; binding and its absence hold for the method and conditions named.

In this experiment the target is recombinant CHMP7 (full length, wild type) (human) (UniProt Q8WUX9). In words: negative stain electron microscopy; each recombinant protein (LEM2^CT, CHMP7 or CHMP7 S3D/S441D) incubated alone; polymerisation scored; both purified.

B1: recombinant CHMP7 (full length, wild type) (protein, UniProt Q8WUX9 1-453)
chain: MWSPEREAEAPAGGDPAGLLPPEWEEDEERMSFLFSAFKRSREVNSTDWDSKMGFWAPLVLSHSRRQGVVRLRLRDLQEAFQRKGSVPLGLATVLQDLLRRGELQRESDFMASVDSSWISWGVGVFLLKPLKWTLSNMLGDNKVPAEEVLVAVELLKEKAEEVYRLYQNSPLSSHPVVALSELSTLCANSCPDERTFYLVLLQLQKEKRVTVLEQNGEKIVKFARGPRAKVSPVNDVDVGVYQLMQSEQLLSRKVESLSQEAERCKEEARRACRAGKKQLALRSLKAKQRTEKRIEALHAKLDTVQGILDRIYASQTDQMVFNAYQAGVGALKLSMKDVTVEKAESLVDQIQELCDTQDEVSQTLAGGVTNGLDFDSEELEKELDILLQDTTKEPLDLPDNPRNRHFTNSVPNPRISDAELEAELEKLSLSEGGLVPSSKSPKRQLEPTLKPL
For the molecule B1, the binding result was “no binding (condition: incubated alone, without LEM2^CT)”.
